Data on 61 compounds can be found in PubChem BioAssay AID493014 (National Center for Advancing Translational Sciences (NCATS), 2011).

The assay is described as follows: qHTS Assay to Find Inhibitors of Chronic Active B-Cell Receptor Signaling. The note with it: ABC-DLBCL IkBa-CBG/CBR reporter, luminescence ratio (green luciferase fused to IkBa over red control in TMD8 lymphoma cells), 4 h. The essentials: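 Doxycycline induced both beetle luciferases in TMD8 lymphoma cells; IKK-driven degradation limits the IkappaBalpha-fused green signal, while red luminescence normalises for cell number and nonspecific effects. Compounds tested up to 46 uM, 4 hrs.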
(qHTS replaces the single test concentration by a dilution series.)

[1] abbreviates: measured here: CBR red luminescence, cell number.
[2] abbreviates: measured here: IkBa-CBG green luminescence.

Several values for one entry are separate records, joined by “and”; a condition that tells them apart may be missing. Equal entries are not always repeated. The list shows a part of the results. The main result of the screen is listed elsewhere. These columns were measured beside it and carry no call. The list favours compounds with an active or inconclusive main result. The note in brackets gives the kind of curve behind each potency; many fits are weak.

As a reminder, the AC50 is the concentration at which the activity in the assay is half-maximal. For `CCOc1cccc(-c2c(C(=O)N/N=C/c3ccsc3)nnn2-c2nonc2N)c1`, under setting [1], the AC50 was 35.5 µM [falling, single point].

Regarding `COc1cc(NC(=O)C2CCCCC2)c2ncccc2c1`, the AC50 under setting [1] was 0.517 µM [rising, full curve, poor fit]. Turning to `O=C(N/N=C/c1ccc(N2CCOCC2)cc1)c1ccccc1OCCOc1ccccc1`, the AC50 under setting [1] was 12.6 µM [falling, partial curve, poor fit]. On the same count and under the same terms, next, `COc1ccc(-c2nc3c(c(=O)[nH]c(=O)n3Cc3ccccc3)n2CCO)cc1`: 12.6 µM [rising, partial curve, poor fit]; `COc1ccccc1CCC(=O)OCc1csc(CC(=O)Nc2ccccc2C)n1`: 35.5 µM [falling, single point]. As to `COc1cc(C(=O)N2CCN(c3cccc(C)c3C)CC2)ccc1OCC(=O)N1CCOCC1`, the AC50 was 13 µM [rising, partial curve, poor fit] under setting [1] and 18.4 µM [falling, single point] under setting [2]. For `c1cncc(-c2ccc3ncnc(NCc4ccc5c(c4)OCO5)c3c2)c1`, the AC50 is 10.3 µM [rising, partial curve, poor fit] and 4.11 µM [rising, full curve, poor fit] under setting [1]; 18.4 µM [falling, partial curve, poor fit] and 13 µM [falling, partial curve] under setting [2]. On to `Cc1nc2cc(NC(=O)Nc3cccc4ccccc34)ccc2n1C`, for which the concentration at half-maximal activity (AC50) under setting [1] was 10 µM [falling, partial curve, poor fit]. The same measure, in the same setting: next, `Cc1ccc(OCC(=O)NNC(=O)C2CSC3(C)CCC(=O)N23)cc1C` (stereo unspecified): 16.4 µM [falling, partial curve, poor fit]; `CNS(=O)(=O)c1cccc(C(=O)OCc2cc(=O)oc3c(C)c(O)ccc23)c1`: 22.4 µM [falling, single point]; `O=C(CSc1nnc(Nc2ccccc2)s1)Nc1cccc(S(=O)(=O)N2CCCCC2)c1`: 4.11 µM [falling, full curve]. On the same count and under the same terms, next, `CN(CC(=O)O)S(=O)(=O)c1cc(Cl)ccc1Cl`: 2.91 µM [rising, partial curve, poor fit]; `CC(NC(=S)Nc1ccc(S(=O)(=O)N2CCOCC2)cc1)C1CC2CCC1C2` (stereo unspecified): 25.9 µM [falling, single point]. On the same count and under the same terms, next, `C=CCOc1ccc(CNn2cn[nH]c2=S)cc1OC`: 14.6 µM [falling, partial curve]; `C/C(=N\Nc1ccc([N+](=O)[O-])cc1)c1ccco1`: 0.184 µM [rising, full curve]. On to `O=C(CSc1nc2ccccc2c(=O)n1NC(=O)Cc1ccccc1)NCCc1ccccc1`, for which the AC50 under setting [1] was 3.16 µM [rising, partial curve, poor fit]. As to `CCc1sc(NC(=O)CN2CCOCC2)nc1-c1ccccc1`, the AC50 under setting [1] is 0.731 µM [falling, full curve].

Regarding `Cc1ccc(C2NC(C(=O)O)CS2)cc1` (stereo unspecified), the AC50 under setting [1] was 15.8 µM [rising, single point]. As for `CCN(CC)CCOc1cc2c(nn1)Oc1ccccc1N2C`, under setting [1], the AC50 is 35.5 µM [rising, single point]. Same read-out and setting: next, `COCC(=O)N(Cc1ccc(OC)cc1)Cc1nc2ccccc2c(=O)[nH]1`: 32.6 µM [falling, single point]; `CNC(=O)c1c[nH]c2ccc(S(=O)(=O)Nc3cccc(SC)c3)cc2c1=O`: 35.5 µM [falling, single point]. The same measure, in the same setting: next, `O=C(Nc1nc2c(s1)CCCC2)c1cccnc1`: 8.2 µM [falling, partial curve, poor fit].

Take `CCCN1C(=O)/C(=C\C=C2\N(CC)c3ccccc3C2(C)C)SC1=S`: the AC50 under setting [1] is 0.562 µM [rising, full curve, poor fit]. With `O=C(Cc1ccsc1)Nc1ccc(Cl)cc1Cl`, the AC50 under setting [1] was 2.24 µM [rising, full curve]. Same read-out and setting: next, `C/C(=N\NC(=O)c1cc2c(s1)CCC(C)C2)c1ccc[nH]1` (stereo unspecified): 0.411 µM [rising, full curve]. Consider `CCN(CC)C(=O)[C@H]1C[C@H](CC(=O)NCc2cccc(C(F)(F)F)c2)C(=O)N2CCc3c([nH]c4cc(-c5ccco5)ccc34)[C@]12C`, for which the AC50 is 2.91 µM [falling, full curve, poor fit] under setting [1] and 32.6 µM [falling, partial curve, poor fit] under setting [2]. Turning to `Cc1ccc2[nH]c3c(=O)n(CC(=O)NCc4ccco4)ncc3c2c1`, the AC50 under setting [1] was 5.62 µM [falling, single point]. On the same count and under the same terms, next, `O=c1[nH]c(C2CCN(S(=O)(=O)c3ccccc3C(F)(F)F)CC2)nc2c1nnn2Cc1ccccc1`: 35.5 µM [falling, single point]; `O=C(CCN1C(=O)c2ccccc2S1(=O)=O)Nc1ccc2c(c1)OCCO2`: 35.5 µM [falling, single point]; `O=C(Nc1ccc2c(c1)OCO2)c1ccc(Br)o1`: 29.1 µM [falling, single point].

On to `O=C(C1=NNC2C(=O)N(c3ccccc3)C(=O)C12)c1nc(Cl)ccc1Cl` (stereo unspecified), for which, under setting [1], the AC50 was 6.51 µM [falling, partial curve].

Regarding `COc1cccc(C2N(c3cccc(Cl)c3)C(=O)C3CCCN32)c1OC` (stereo unspecified), under setting [1], the AC50 is 6.51 µM [rising, single point]. On the same count and under the same terms, next, `CCOC(=O)c1sc(NC(C)=O)cc1C`: 29.1 µM [rising, single point]; `CCn1c(/C=C/c2ccc(O)c(O)c2)nc2ccccc2c1=O`: 11.2 µM [falling, partial curve, poor fit]; `CCNc1nc(Sc2ccc(C)cc2)cc(C(F)(F)F)n1`: 14.1 µM [rising, single point]. Take `Cc1ccc(NC(=O)CCOc2ccccc2)cc1`: the AC50 under setting [1] is 100 nM [rising, full curve, poor fit] and 6.31 µM [rising, single point]. The same measure, in the same setting: next, `CCn1c(=O)cc(OCC(=O)NCc2cccnc2)c2ccccc21`: 35.5 µM [falling, single point]. Still for that read-out and setting: next, `C=CCOC(=O)c1[nH]c2c(c1C)C(=O)CC(c1cc(OC)c(OC)c(OC)c1)C2` (stereo unspecified): 16.4 µM [falling, partial curve, poor fit]; `CN(C)S(=O)(=O)c1cccc(NC(=S)N/N=C/c2cccc(O)c2)c1`: 6.31 µM [falling, full curve]; `Cn1c(N)c(C(=O)COC(=O)c2ccccc2C(=O)c2ccc(Cl)c([N+](=O)[O-])c2)c(=O)n(C)c1=O`: 25.9 µM [falling, single point]. Same read-out and setting: next, `C=CCSc1nnc(Cn2c(=O)sc3ccccc32)n1C`: 29.1 µM [rising, single point]; `O=C(c1ccc(F)cc1)c1cc2ccc(O)cc2oc1=O`: 35.5 µM [falling, single point]; `Cc1ccc(NC(=O)Nc2c(Cl)cccc2Cl)cn1`: 0.708 µM [falling, partial curve, poor fit]. For `COCCn1c(C)cc(/C=N/NC(=O)c2cc3ccccc3cc2O)c1C`, the AC50 under setting [1] is 0.231 µM [rising, full curve, poor fit]. Still for that read-out and setting: next, `O=C(CS(=O)(=O)Cc1ccccc1)Nc1nc2ccccc2s1`: 29.1 µM [falling, single point]; `COC(=O)c1cc(Br)c(=O)n(-c2ccccc2F)c1`: 3.16 µM [rising, full curve, poor fit]. Still for that read-out and setting: next, `O=C(Cc1ccccc1)NCC(=O)N1CCCCCC1`: 16.4 µM [falling, single point]; `O=C(Nc1ncccc1O)c1ccc(NS(=O)(=O)c2ccc3[nH]c(=O)[nH]c3c2)cc1`: 10.3 µM [rising, partial curve, poor fit]; `CC(OC(=O)c1cccc(S(=O)(=O)N2CCOCC2)c1)C(=O)NC1CCCCC1C` (stereo unspecified): 6.51 µM [rising, full curve]. Still for that read-out and setting: next, `COc1ccc(/C(C)=N\NC(=O)c2ccc3c(c2)OCO3)cc1OC`: 7.94 µM [falling, partial curve]; `CC(=O)Nc1ccc(NC(=O)Nc2ccccc2)cc1`: 2.82 µM [falling, full curve]. As to `Cc1cc(C(F)(F)F)c(C#N)c(SCC(=O)Nc2nc3ccccc3s2)n1`, the AC50 under setting [1] was 5.8 µM [falling, partial curve, poor fit].

As to `CCN(CC(=O)Nc1cc(Cl)ccc1C)C(=O)c1nc2nc(C)cc(C)n2n1`, the AC50 under setting [1] is 29.1 µM [rising, single point]. In the case of `CCn1c(=O)c2sccc2n2c(CCCC(=O)NCCc3ccc(S(N)(=O)=O)cc3)nnc12`, the AC50 runs as follows: under setting [1], 3.55 µM [rising, single point]; under setting [2], 6.31 µM [falling, partial curve, poor fit]. Consider `CN(C)c1ccc(NC(=O)Nc2csc3ccccc23)cc1`, for which, under setting [1], the AC50 is 11.2 µM [falling, partial curve, poor fit]. As for `COc1ccc(N2CCN(C(=O)Cc3ccc(Br)cc3)CC2)cc1`, the AC50 under setting [1] was 0.1 µM [rising, full curve, poor fit]. Still for that read-out and setting: next, `O=C(NC1CCCCC1)c1n[nH]c2c1CCCCC2`: 0.326 µM [falling, full curve]. Still for that read-out and setting: next, `CCN(CC)S(=O)(=O)c1cccc(C(=O)N[C@H](C(=O)NC2=NCCS2)C(C)C)c1`: 0.517 µM [rising, full curve, poor fit]; `CC(=O)c1c(C)[nH]c(C(=O)OCCOc2ccccc2)c1C`: 0.1 µM [rising, full curve, poor fit]; `CC1CCN(S(=O)(=O)c2ccc3ccccc3c2)CC1`: 9.2 µM [rising, partial curve].

Consider `O=C(Nn1c(C2CCCCC2)nc2ccccc2c1=O)c1ccc(Cl)c([N+](=O)[O-])c1`, for which the AC50 is, setting by setting: under setting [1], 29.1 µM [falling, single point]; under setting [2], 18.4 µM [rising, partial curve, poor fit].
